Some results were stated once for a whole list of compounds, not compound by compound.
Tested on: bacteria, yeasts and moulds of Examples 7, 8, 9 and 10
Assay: Activity according to the protocols of Examples 7, 8, 9 and 10
Assay type: cell-based

| Structure (SMILES) | activity when tested according to the protocols of Examples 7, 8, 9 and 10 |
| --- | --- |
| CCCCCCCCOC(=O)C[n+]1ccn(CCCC)c1.[Cl-] [Example 11, 1-butyl-3-(2-oxo-2-octyloxyethyl)-1H-Imidazolium chloride] | good activity |
| CCCCOC(=O)C[n+]1ccn(CCCC)c1.[Cl-] [Example 12, 1-butyl-3-(2-oxo-2-butyloxyethyl)-1H-Imidazolium chloride] | good activity |
| CCCCCCCCCCCCOC(=O)C[n+]1ccn(CCCC)c1.[Cl-] [Example 13, 1-butyl-3-(2-oxo-2-dodecyloxyethyl)-1H-Imidazolium chloride] | good activity |
| CCCCCCCCCCCCCCCCCCOC(=O)C[n+]1ccn(CCCC)c1.[Cl-] [Example 15, 1-butyl-3-(2-oxo-2-octadecyloxyethyl)-1H-Imidazolium chloride] | good activity |
